Data published in EP0557936A1, “Amidic derivatives of (R)-glycerophosphoryl-(S)-serine or of its diacyl derivative, process for their preparation and relative pharmaceutical compositions for the improvement of the learning processes” (MAGIS FARMACEUTICI S.p.A., priority 1992, dated 1993).

Tested on: scopolamine induced amnesy
Test: passive avoidance test, scopolamine induced amnesia (intraperitoneal administration)
Type: in vivo, rat
Details: scopolamine 1 mg/kg, 10 rats
Experimental: The antiamnesic activity was tested by means of the classical passive avoidance test, with respect to the amnesy induced in the rat, by administration of scopolamine, or by means of electroconvulsive shock (ECS).For both the tests a shuttle-box was used of the Ugo Basile Company (Comerio, Varese), consisting of two compartments, one of which compartments was clear and the other one dark and fitted with an electrifiable floor.
In order to induce a passive avoidance response, the animal was placed onto a runner of the clear compartment, enlightened by a 60 watt lamp, for a 1 minute acclimatisation, whereafter a bulkhead was opened putting the runner in communication with the dark compartment, which the animal istinctively entered after a latency of a few seconds. The bulkhead was immediately shut and the animal got a 0.21 mA current for 2 second through the electrifiable floor. The animal was then removed and newly subjected to the test 24 h later, in order to verify the retention level of the acquired response of passive avoidance, measuring the latency required by the entry into the electrifiable compartment, with an end-point of 300 second.
All the tests were carried out under conditions of stratified randomization, using in each test session the same number of animals for the different experimental groups tested in parallel, and comprising, besides the groups treated with the product under test (test substances and reference substances having known activity), two separate groups of controls and precisely: blank controls (animals treated with placebo) and deconditioned controls (animals treated with placebo and subjected to amnesic treatment by means of scopolamine or of ECS).
The results obtained with the different dosages of the products subjected to screening and with the corresponding reference standards having a known activity, namely N(S)-3-(formyl-amino)-epsilon-caprolactam, N(4-phenylbutanoyl-hydroxy)prolyl-pyrrolidine and glycerophosphoryl-serine, were expressed as a percentage of antagonism of the amnesy (AA), defined according to the following formula: [formula] wherein the index of comparison IC, concerning treated animals (t) and blank controls (b), is defined by the formula: [formula] wherein: Nm = number of animals belonging to group m (blanks or treated animals); Nn = number of animals belonging to group n (deconditioned animals); Amn = binary function which can assume only the values +1, zero or - 1, depending on the fact that the latency time (seconds) of an animal of the m group (xm) be respectively higher than, equal to or lower than the latency time (seconds) of an animal of the n group (xn).
The summation Σ Amn i extended to all the pairs obtained combining each xm term with each xn term.
Normally the comparison index (IC) between blank controls and deconditioned controls is between 60% and 80% and the test was discarded when such index resulted to be lower than 40%.
The utilized rats were male C.r.l.: CD (50) BR (Charles River Italia), showing a weight of 150-170 g, after an acclimatisation time of a week, under standard conditions.
The animals got the products to be tested by intraperitoneal way and scopolamine bromhydrate (1 mg/kg) by subcutaneous way, respectively 45 and 30 minutes before being subjected to the previously described avoidance test.
As to the standard substances [GFS, N(S)-3-(formylamino)-epsilon-caprolactam and N(4-phenylbutanoylhydroxy)prolyl-pyrrolidine], the used dosage was 4x10⁻² mmol/kg, whereas for the products to be tested the used dosage was between 1x10⁻² and 12x10⁻² mmol/kg, with an intermediate dosage equimolar with respect to the one of the standards.

Row | Compound | LEARNING Initial avoid. time (sec.) (dose 4.10^-2 mmoli/kg i.p.) | LEARNING Learn-ing time (dose 4.10^-2 mmoli/kg i.p.) | LEARNING Initial avoid. time (sec.) (dose 8.10^-2 mmoli/kg i.p.) | LEARNING Learn-ing time (dose 8.10^-2 mmoli/kg i.p.) | LEARNING Initial avoid. time (sec.) (dose 12.10^-2 mmoli/kg i.p.) | LEARNING Learn-ing time (dose 12.10^-2 mmoli/kg i.p.)
1 | N[C@@H](COP(=O)(O)OC[C@H](O)CO)C(=O)O [GFS, glycerophosphoryl-serine, reference compound] | 2,2 sec. | 110 s |  |  |  | 
2 | COC(=O)CN1CCCC[C@H](NC(=O)[C@@H](N)COP(=O)(O)OC[C@H](O)CO)C1=O [MGS 2] | 1,9 sec. | 110 s | 2,3 sec. | 110 s | 2,1 sec. | 110 s
3 | O=CN[C@H]1CCCCNC1=O [N-Formylamino ε -caprolactame, N(S)-3-(formyl-amino)-epsilon-caprolactam, reference compound] | 2,1 sec. | 110 s |  |  |  | 
4 | N(4-phenylbutanoyl-hydroxy)prolyl-pyrrolidine [Phenyl-butirryl prolyl-pirrolidine, reference compound] | 2,3 sec. | 110 s |  |  |  | 
